# Test results as given in paper PMC13372662.
# Amino acid sequences for entries named in this document (tags omitted).
# UniProt P12004: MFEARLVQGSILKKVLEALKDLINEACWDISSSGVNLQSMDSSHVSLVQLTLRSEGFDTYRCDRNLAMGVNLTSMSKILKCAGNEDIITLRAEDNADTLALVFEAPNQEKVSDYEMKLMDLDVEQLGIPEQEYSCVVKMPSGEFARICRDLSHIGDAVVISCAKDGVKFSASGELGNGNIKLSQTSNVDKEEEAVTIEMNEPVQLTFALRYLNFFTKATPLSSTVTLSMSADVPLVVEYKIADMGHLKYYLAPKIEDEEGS
# UniProt P46100: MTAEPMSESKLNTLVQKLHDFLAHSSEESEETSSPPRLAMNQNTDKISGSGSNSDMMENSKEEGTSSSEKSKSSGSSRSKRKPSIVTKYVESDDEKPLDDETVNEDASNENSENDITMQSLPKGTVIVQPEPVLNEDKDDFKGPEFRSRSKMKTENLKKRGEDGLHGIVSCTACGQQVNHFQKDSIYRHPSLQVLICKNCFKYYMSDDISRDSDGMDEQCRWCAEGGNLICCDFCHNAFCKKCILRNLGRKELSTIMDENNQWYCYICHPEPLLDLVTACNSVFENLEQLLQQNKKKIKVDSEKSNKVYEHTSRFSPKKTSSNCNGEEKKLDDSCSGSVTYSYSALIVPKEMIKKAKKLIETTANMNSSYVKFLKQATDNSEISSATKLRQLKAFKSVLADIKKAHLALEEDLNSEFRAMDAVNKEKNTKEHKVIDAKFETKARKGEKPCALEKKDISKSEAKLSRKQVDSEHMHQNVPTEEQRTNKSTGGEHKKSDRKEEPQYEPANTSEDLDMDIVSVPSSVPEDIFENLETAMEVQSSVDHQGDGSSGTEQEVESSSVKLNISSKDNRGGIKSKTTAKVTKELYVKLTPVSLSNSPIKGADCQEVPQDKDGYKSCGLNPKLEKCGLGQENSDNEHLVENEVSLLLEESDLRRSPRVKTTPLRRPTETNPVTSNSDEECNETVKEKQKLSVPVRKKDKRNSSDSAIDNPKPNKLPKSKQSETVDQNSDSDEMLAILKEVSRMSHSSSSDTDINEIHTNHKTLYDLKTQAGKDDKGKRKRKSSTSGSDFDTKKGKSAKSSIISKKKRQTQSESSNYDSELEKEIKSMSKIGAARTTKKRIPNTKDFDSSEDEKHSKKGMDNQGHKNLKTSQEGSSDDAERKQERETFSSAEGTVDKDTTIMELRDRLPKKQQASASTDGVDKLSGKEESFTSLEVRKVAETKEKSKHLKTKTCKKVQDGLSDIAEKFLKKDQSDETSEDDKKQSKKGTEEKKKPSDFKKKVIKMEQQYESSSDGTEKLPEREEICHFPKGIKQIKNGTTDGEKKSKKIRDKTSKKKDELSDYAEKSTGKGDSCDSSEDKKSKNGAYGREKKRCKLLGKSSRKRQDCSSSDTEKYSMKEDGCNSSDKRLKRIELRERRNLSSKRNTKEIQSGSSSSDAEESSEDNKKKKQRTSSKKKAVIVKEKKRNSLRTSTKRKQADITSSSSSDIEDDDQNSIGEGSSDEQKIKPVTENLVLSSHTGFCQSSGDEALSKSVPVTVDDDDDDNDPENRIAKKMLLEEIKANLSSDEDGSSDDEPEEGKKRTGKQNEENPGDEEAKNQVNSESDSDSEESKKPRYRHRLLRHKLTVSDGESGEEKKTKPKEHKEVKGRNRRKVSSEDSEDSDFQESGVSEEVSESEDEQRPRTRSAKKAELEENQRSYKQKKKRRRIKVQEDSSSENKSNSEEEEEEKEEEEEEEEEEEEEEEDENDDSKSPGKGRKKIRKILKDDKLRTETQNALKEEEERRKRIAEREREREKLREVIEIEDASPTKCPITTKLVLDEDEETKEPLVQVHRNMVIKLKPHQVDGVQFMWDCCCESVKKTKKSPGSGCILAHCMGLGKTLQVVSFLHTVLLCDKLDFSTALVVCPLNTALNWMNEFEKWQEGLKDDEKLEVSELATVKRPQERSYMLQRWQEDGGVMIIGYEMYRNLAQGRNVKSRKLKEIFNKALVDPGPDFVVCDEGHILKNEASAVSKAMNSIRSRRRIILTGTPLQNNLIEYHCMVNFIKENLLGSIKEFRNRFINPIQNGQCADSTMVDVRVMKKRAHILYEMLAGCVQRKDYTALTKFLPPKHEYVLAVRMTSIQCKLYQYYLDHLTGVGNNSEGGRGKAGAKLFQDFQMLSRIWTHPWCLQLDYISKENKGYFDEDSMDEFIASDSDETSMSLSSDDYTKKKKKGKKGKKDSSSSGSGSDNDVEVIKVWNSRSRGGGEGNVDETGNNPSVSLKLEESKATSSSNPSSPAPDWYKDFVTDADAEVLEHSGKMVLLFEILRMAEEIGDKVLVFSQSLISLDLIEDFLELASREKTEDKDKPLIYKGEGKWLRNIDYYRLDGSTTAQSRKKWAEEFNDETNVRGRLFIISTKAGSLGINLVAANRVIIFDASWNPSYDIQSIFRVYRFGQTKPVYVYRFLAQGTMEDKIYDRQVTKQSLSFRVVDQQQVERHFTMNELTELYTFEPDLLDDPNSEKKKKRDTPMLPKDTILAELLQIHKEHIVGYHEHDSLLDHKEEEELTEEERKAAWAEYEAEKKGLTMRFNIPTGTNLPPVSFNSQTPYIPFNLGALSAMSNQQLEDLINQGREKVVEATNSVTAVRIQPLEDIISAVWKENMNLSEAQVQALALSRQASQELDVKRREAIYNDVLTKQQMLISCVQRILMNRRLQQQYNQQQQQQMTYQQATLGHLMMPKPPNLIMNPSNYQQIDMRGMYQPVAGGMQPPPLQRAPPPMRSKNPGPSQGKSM
# No constants are given. Whether binding was seen depends on the method and setting. In cells and extracts the contact can be indirect. Some results given as binding are weak or reduced against the parent protein; the word gives no strength.
# Target: PCNA (human (endogenous in eHAP)) (UniProt P12004)
# Assay: proximity ligation; Duolink PLA with rabbit anti-HA and mouse anti-PCNA; ATRX-null eHAP cells stably expressing HA-tagged ATRX, pulsed with 10 µM EdU for 10 min, pre-extracted in CSK buffer with 0.2% Triton X-100, fixed; foci per nucleus in EdU+ cells, unchallenged
substance,measurement,value
HA-tagged ATRX-WT (from UniProt P46100 1-2492),binding,binds
